# Data from the supplement of paper PMC10849652.
# Protein sequences, listed by entry. Tags and fused reporters are not part of them. Lines headed by an entry give the natural chain unless they say otherwise; changes in a name come on top.
# UniProt Q8IXJ9: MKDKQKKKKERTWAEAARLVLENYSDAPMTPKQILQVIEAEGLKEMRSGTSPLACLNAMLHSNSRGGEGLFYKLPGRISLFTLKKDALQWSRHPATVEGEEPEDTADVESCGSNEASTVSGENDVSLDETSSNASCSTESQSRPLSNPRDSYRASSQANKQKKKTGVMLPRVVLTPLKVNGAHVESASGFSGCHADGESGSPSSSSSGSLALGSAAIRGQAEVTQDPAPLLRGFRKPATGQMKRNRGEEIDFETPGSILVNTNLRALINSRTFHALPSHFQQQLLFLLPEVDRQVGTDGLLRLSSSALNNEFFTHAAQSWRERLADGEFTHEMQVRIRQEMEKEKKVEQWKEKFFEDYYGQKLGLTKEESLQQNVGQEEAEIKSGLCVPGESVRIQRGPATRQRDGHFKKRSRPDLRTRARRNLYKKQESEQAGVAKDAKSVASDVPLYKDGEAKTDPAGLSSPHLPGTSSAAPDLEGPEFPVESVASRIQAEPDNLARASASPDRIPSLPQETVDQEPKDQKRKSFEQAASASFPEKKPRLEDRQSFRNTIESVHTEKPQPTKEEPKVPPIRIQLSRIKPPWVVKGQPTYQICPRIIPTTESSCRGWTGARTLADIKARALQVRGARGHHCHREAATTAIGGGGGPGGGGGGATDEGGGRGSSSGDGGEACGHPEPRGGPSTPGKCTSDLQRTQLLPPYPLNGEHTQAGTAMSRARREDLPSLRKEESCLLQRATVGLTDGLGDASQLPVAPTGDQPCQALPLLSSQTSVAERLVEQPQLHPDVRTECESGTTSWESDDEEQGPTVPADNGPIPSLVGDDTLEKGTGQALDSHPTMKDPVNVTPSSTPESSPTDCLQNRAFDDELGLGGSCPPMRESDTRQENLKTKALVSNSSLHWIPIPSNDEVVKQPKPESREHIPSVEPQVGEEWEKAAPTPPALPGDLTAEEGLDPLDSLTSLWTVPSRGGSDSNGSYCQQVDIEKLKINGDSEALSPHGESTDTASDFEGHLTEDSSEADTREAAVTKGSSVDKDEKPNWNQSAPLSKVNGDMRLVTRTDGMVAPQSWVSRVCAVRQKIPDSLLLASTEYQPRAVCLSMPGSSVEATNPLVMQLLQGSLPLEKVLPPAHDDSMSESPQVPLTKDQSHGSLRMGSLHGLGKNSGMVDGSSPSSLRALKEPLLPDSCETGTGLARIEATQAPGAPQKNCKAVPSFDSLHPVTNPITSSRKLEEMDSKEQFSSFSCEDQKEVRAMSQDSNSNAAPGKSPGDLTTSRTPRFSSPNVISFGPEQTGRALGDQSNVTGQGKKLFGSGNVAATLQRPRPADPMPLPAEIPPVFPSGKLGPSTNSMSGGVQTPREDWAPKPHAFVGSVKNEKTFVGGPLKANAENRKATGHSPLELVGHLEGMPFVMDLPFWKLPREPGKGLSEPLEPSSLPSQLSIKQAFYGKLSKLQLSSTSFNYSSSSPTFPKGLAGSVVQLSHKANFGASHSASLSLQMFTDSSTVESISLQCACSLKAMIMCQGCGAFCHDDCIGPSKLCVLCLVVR
# UniProt O75947: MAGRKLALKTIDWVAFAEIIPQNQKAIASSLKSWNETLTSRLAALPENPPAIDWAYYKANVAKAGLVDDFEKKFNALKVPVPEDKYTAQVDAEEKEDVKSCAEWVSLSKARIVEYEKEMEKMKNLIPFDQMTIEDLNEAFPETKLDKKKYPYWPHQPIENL
# UniProt Q8WYN0: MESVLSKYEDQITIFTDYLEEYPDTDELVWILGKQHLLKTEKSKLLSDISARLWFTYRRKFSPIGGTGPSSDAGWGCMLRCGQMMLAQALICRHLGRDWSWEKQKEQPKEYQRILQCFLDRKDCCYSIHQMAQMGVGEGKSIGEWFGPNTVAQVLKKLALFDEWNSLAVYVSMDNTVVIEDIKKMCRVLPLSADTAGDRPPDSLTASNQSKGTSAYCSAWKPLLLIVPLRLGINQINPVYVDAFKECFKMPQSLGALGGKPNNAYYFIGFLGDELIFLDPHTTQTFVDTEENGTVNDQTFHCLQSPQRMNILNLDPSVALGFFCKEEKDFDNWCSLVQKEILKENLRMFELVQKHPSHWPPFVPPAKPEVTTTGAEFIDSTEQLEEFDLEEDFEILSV
# UniProt P36542: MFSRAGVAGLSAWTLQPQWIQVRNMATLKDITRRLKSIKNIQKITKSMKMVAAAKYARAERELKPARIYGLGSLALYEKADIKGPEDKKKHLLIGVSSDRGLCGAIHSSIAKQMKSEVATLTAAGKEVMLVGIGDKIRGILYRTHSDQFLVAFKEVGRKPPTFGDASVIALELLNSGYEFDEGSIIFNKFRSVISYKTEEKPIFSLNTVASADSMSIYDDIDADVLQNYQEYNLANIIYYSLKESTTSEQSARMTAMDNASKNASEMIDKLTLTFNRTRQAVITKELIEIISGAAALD
# UniProt Q8N5I2: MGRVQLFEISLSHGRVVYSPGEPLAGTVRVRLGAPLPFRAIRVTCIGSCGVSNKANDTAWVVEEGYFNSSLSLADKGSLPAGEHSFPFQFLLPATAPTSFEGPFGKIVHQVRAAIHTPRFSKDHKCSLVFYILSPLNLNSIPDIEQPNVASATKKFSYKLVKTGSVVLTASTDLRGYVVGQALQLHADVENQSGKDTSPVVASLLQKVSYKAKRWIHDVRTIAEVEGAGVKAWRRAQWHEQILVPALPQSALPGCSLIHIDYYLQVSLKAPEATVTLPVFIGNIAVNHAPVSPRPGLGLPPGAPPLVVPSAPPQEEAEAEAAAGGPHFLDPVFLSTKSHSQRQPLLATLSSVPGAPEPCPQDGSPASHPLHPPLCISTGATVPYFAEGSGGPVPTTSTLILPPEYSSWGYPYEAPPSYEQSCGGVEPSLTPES
# UniProt Q96KC2: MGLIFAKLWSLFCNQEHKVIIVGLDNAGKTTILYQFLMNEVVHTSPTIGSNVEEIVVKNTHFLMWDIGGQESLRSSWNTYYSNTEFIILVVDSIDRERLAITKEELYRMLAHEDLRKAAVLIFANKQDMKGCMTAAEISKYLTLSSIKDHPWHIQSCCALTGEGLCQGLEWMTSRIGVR
# UniProt Q9NWX5: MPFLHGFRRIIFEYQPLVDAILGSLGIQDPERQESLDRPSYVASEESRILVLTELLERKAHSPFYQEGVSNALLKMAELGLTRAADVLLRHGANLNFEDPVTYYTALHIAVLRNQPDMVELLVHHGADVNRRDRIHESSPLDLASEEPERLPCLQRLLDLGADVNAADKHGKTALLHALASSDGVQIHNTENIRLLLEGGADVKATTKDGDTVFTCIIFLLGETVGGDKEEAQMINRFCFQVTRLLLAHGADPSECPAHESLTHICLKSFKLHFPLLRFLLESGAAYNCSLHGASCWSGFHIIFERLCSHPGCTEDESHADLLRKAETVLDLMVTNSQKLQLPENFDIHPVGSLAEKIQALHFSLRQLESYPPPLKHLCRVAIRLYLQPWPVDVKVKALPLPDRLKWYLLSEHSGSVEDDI
# UniProt Q9H0Y0: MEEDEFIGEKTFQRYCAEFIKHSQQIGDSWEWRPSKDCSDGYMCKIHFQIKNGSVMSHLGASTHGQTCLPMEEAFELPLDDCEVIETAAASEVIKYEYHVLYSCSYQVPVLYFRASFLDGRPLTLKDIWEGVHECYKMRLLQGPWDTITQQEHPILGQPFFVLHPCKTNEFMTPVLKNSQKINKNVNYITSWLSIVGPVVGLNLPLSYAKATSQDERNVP
# UniProt P40617: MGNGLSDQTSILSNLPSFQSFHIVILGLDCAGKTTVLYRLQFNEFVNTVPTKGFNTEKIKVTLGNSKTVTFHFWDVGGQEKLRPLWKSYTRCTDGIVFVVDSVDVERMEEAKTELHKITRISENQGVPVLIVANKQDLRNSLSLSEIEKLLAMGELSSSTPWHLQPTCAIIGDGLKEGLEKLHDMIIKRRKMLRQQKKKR
# UniProt Q3SXY8: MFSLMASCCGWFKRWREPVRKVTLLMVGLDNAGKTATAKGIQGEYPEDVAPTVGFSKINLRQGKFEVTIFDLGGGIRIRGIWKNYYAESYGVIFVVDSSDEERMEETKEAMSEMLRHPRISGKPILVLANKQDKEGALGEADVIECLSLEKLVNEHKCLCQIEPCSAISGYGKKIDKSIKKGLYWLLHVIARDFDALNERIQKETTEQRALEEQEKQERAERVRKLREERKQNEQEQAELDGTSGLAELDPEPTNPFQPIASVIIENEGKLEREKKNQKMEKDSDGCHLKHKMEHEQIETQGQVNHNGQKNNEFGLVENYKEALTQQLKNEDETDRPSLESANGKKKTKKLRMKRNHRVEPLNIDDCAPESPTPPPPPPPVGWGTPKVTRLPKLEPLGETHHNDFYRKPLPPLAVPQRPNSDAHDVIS
# UniProt Q01814: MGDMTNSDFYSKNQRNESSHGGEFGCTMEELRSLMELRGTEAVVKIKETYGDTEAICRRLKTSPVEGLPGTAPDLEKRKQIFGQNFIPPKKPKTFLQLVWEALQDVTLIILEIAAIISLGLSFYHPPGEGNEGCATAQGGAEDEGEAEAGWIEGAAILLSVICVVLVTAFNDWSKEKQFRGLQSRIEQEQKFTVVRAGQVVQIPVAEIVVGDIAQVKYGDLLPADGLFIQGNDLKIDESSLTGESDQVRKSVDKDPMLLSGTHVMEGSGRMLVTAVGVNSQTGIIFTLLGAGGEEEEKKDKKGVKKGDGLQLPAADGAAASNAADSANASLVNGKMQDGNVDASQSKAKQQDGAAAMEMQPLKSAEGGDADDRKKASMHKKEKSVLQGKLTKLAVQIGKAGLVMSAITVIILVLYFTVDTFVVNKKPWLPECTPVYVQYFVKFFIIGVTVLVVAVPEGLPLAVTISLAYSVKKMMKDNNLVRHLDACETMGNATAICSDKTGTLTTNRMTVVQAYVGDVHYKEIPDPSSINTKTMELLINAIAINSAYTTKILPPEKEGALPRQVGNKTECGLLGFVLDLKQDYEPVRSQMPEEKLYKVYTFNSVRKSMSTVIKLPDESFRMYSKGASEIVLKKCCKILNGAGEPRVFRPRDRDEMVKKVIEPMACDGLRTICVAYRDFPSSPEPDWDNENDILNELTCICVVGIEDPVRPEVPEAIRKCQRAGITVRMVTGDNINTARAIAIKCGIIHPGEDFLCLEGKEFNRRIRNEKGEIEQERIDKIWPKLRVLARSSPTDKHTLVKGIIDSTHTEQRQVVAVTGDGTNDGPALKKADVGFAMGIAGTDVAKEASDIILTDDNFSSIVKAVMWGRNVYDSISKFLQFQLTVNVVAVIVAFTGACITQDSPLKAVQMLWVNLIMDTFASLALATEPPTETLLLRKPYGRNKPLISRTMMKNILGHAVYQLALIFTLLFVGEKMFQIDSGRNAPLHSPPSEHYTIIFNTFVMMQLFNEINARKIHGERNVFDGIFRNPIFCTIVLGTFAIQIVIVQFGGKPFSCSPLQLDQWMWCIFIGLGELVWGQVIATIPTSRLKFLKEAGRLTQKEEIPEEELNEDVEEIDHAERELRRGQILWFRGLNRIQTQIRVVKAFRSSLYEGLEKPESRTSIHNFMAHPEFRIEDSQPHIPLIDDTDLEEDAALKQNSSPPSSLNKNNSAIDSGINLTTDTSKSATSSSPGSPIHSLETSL
# UniProt P49407: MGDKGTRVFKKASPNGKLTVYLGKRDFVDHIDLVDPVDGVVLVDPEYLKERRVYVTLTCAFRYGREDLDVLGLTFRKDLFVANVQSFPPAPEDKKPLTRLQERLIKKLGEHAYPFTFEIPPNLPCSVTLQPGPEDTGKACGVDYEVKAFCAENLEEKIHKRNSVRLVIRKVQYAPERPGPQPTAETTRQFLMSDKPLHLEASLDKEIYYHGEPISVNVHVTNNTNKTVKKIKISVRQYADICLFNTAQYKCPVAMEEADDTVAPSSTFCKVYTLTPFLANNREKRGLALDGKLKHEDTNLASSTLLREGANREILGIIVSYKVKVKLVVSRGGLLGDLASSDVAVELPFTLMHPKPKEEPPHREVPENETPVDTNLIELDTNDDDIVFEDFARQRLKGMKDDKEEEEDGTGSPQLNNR
# UniProt P14415, whole entry, looked up: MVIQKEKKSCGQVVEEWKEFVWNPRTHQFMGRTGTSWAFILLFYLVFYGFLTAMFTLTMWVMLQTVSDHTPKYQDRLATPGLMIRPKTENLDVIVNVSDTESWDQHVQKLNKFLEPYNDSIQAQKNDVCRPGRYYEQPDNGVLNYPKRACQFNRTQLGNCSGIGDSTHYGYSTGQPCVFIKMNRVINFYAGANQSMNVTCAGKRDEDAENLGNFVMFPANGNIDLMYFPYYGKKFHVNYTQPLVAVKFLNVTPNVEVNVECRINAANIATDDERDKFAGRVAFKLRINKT
# UniProt P27449, whole entry, looked up: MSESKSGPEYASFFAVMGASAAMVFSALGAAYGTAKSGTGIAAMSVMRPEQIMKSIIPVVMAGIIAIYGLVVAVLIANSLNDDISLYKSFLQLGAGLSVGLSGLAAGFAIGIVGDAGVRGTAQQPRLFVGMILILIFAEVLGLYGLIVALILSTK
# UniProt P18847: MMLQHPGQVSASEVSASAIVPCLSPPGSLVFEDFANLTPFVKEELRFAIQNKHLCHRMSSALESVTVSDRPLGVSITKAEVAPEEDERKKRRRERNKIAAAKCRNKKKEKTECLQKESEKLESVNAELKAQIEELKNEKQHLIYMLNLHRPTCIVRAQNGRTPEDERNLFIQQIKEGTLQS
# This is one part of the list.
# How the values were obtained:
# Assay in all cases: log2 fold change, soluble protein after heating vs DMSO (PISA); higher = thermal stabilisation; K562 cells, 10 uM, 30 min; active = over 0.2 and 3.5 SD of the protein, either way, in both replicates (recomputed)
# [1] = compound: COC1=CC=C(C=C1)CN2C=CC3=C2C=C(C=C3)C(=O)NO
# In short: (§1)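 K562 cells at 2×10^6 cells/mL were treated with 10 μM compound for 30 min. Aliquots were heated for 3 min across 48°C-58°C, pooled, and extracted in PBS with 0.5% NP-40 at 4°C; soluble protein was the supernatant after 21,000xg for 90 min. Soluble protein was quantified by TMTpro 16plex LC-MS/MS with channel sums equalised, and reported as log2 fold change in thermal stability against DMSO controls, with values from duplicates.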
# filanesib = compound: CON(C)C(=O)N1N=C(c2cc(F)ccc2F)S[C@@]1(CCCN)c1ccccc1 [filanesib]
# In short: as §1
# zotarolimus = compound: CO[C@H]1C[C@@H]2CC[C@@H](C)[C@@](O)(O2)C(=O)C(=O)N2CCCC[C@H]2C(=O)O[C@H]([C@H](C)C[C@@H]2CC[C@H](n3cnnn3)[C@H](OC)C2)CC(=O)[C@H](C)/C=C(\C)[C@@H](O)[C@@H](OC)C(=O)[C@H](C)C[C@H](C)/C=C/C=C/C=C/1C [zotarolimus]
# In short: as §1
# alisertib = compound: COc1cc(Nc2ncc3c(n2)-c2ccc(Cl)cc2C(c2c(F)cccc2OC)=NC3)ccc1C(=O)O [alisertib]
# In short: as §1
# [2] = compound: COc1cc2nc(-c3cc(F)ccc3O)nc(N[C@@H]3CNC[C@H]3C(C)(C)O)c2cc1OC
# In short: as §1
# gefitinib = compound: COc1cc2ncnc(Nc3ccc(F)c(Cl)c3)c2cc1OCCCN1CCOCC1 [gefitinib]
# In short: as §1
# [3] = compound: COc1cccc2cc(-c3nc([C@H]4CC[C@H](C(=O)O)CC4)n4ncnc(N)c34)[nH]c12
# In short: as §1
# lapatinib = compound: CS(=O)(=O)CCNCc1ccc(-c2ccc3ncnc(Nc4ccc(OCc5cccc(F)c5)c(Cl)c4)c3c2)o1 [lapatinib]
# In short: as §1
# pictilisib = compound: CS(=O)(=O)N1CCN(Cc2cc3nc(-c4cccc5[nH]ncc45)nc(N4CCOCC4)c3s2)CC1 [pictilisib]
# In short: as §1
# idasanutlin = compound: COc1cc(C(=O)O)ccc1NC(=O)[C@@H]1N[C@@H](CC(C)(C)C)[C@](C#N)(c2ccc(Cl)cc2F)[C@H]1c1cccc(Cl)c1F [idasanutlin]
# In short: as §1
Target,log2 fold change [1],log2 fold change (filanesib),log2 fold change (zotarolimus),log2 fold change (alisertib),log2 fold change [2],log2 fold change (gefitinib),log2 fold change [3],log2 fold change (lapatinib),log2 fold change (pictilisib),log2 fold change (idasanutlin)
ATG4C (UniProt Q96DT6),inactive: 0.019,inactive: -0.078,inactive: -0.01,inactive: -0.096,inactive: 0.051,inactive: 0.061,inactive: 0.068,inactive: 0.017,inactive: -0.266,–
ATF6 (UniProt P18850),–,inactive: 0.006,–,–,–,–,–,–,–,–
ASCC2 (UniProt Q9H1I8),inactive: 0.153,inactive: 0.263,inactive: -0.169,inactive: -0.119,–,–,inactive: -0.172,–,–,–
ARSK (UniProt Q6UWY0),inactive: 0.081,–,inactive: 0.045,inactive: -0.115,–,inactive: 0.024,inactive: 0.067,–,–,–
ASXL1 (UniProt Q8IXJ9),–,inactive: 0.214,inactive: 0.182,inactive: -0.157,inactive: -0.085,–,inactive: 0.016,inactive: 0.159,–,–
ATP5PD (UniProt O75947),inactive: 0.002,inactive: -0.031,inactive: 0.009,inactive: -0.014,inactive: 0.007,inactive: -0.003,inactive: 0.005,inactive: -0.047,inactive: -0.014,inactive: -0.021
ATG14 (UniProt Q6ZNE5),–,inactive: 0.03,–,–,inactive: 0.286,–,–,inactive: -0.084,–,inactive: -0.014
ATF7IP isoform 4 (UniProt Q6VMQ6),inactive: 0.05,–,inactive: 0.011,inactive: -0.017,–,inactive: -0.004,inactive: 0.188,–,inactive: 0.056,inactive: 0.08
ATG2A (UniProt Q2TAZ0),inactive: 0.037,–,–,–,–,–,–,–,inactive: -0.251,–
ATG4A (UniProt Q8WYN0),–,–,inactive: -0.023,–,–,–,–,–,–,–
ASF1B (UniProt Q9NVP2),inactive: -0.129,inactive: 0.359,inactive: 0.04,inactive: 0.656,inactive: 0.094,inactive: 0.004,inactive: -0.301,inactive: -0.105,inactive: -0.143,inactive: -0.101
ARL6IP6 (UniProt Q8N6S5),inactive: -0.113,inactive: -0.014,inactive: -0.03,inactive: 0.004,inactive: -0.042,inactive: -0.021,inactive: 0.036,inactive: 0.004,inactive: 0.005,inactive: -0.088
ASNSD1 (UniProt Q9NWL6),inactive: 0.048,inactive: -0.065,–,–,–,inactive: 0.11,–,–,–,–
ATF1 (UniProt P18846),–,inactive: 0.097,active: -0.51,inactive: -0.101,inactive: -0.071,inactive: 0.052,inactive: 0.006,inactive: -0.011,inactive: -0.039,inactive: -0.082
ATP5F1C (UniProt P36542),inactive: -0.019,inactive: 0,inactive: -0.008,inactive: -0.05,inactive: 0.026,inactive: 0.007,inactive: 0.039,inactive: -0.045,inactive: 0.087,inactive: -0.057
ARRDC1 (UniProt Q8N5I2),–,inactive: 0.013,inactive: 0.182,inactive: 0.152,inactive: -0.098,inactive: -0.009,inactive: 0,inactive: 0.01,inactive: -0.092,–
ATE1 (UniProt O95260),inactive: -0.109,–,inactive: -0.05,–,inactive: -0.013,–,–,inactive: 0.034,–,inactive: 0.078
ARL5B (UniProt Q96KC2),–,inactive: -0.053,inactive: -0.087,inactive: -0.006,inactive: 0.106,inactive: 0.142,inactive: 0.089,inactive: -0.048,inactive: -0.012,inactive: -0.222

# Two successive entries out of the list so far, for reference:
Target,log2 fold change [1],log2 fold change (filanesib),log2 fold change (zotarolimus),log2 fold change (alisertib),log2 fold change [2],log2 fold change (gefitinib),log2 fold change [3],log2 fold change (lapatinib),log2 fold change (pictilisib),log2 fold change (idasanutlin)
ARRDC1 (UniProt Q8N5I2),–,inactive: 0.013,inactive: 0.182,inactive: 0.152,inactive: -0.098,inactive: -0.009,inactive: 0,inactive: 0.01,inactive: -0.092,–
ATE1 (UniProt O95260),inactive: -0.109,–,inactive: -0.05,–,inactive: -0.013,–,–,inactive: 0.034,–,inactive: 0.078

# Carrying on.

Target,log2 fold change [1],log2 fold change (filanesib),log2 fold change (zotarolimus),log2 fold change (alisertib),log2 fold change [2],log2 fold change (gefitinib),log2 fold change [3],log2 fold change (lapatinib),log2 fold change (pictilisib),log2 fold change (idasanutlin)
ATP8B2 isoform 3 (UniProt P98198),–,–,–,–,–,–,–,–,–,inactive: 0.218
ASB6 (UniProt Q9NWX5),inactive: 0.298,inactive: 0.008,–,inactive: -0.214,inactive: -0.083,inactive: -0.034,inactive: 0,inactive: -0.055,inactive: 0.157,inactive: -0.029
ATP1A4 (UniProt Q13733),inactive: 0.042,inactive: 0.006,inactive: 0.006,inactive: -0.083,inactive: 0.003,inactive: 0.057,inactive: -0.024,inactive: -0.01,inactive: 0.016,inactive: 0.063
ARPIN isoform 2 (UniProt Q7Z6K5),inactive: -0.112,–,–,inactive: -0.134,inactive: -0.173,inactive: 0.063,inactive: 0.29,inactive: 0.155,inactive: -0.361,inactive: -0.042
ATPSCKMT (UniProt Q6P4H8),–,inactive: -0.136,inactive: -0.015,inactive: 0.009,inactive: 0.053,inactive: -0.046,inactive: -0.006,inactive: 0.032,inactive: 0.155,inactive: -0.088
ATP6V1B2 (UniProt P21281),inactive: 0.006,inactive: -0.018,inactive: 0.006,inactive: -0.047,inactive: -0.089,inactive: -0.103,inactive: 0.013,inactive: -0.032,inactive: -0.039,inactive: 0.039
ARMC8 isoform 6 (UniProt Q8IUR7),–,–,–,–,–,inactive: 0.072,–,–,–,inactive: 0.072
ATG10 (UniProt Q9H0Y0),–,–,–,–,–,inactive: -0.1,–,–,inactive: 0.113,–
ARL4A (UniProt P40617),–,–,–,inactive: 0.042,–,–,inactive: 0.094,–,–,inactive: 0.056
ARL13B (UniProt Q3SXY8),inactive: -0.038,inactive: -0.351,–,inactive: -0.087,–,inactive: -0.007,inactive: 0.125,–,inactive: 0.111,inactive: -0.02
ATP2B2 (UniProt Q01814),–,inactive: 0.068,inactive: 0.092,–,inactive: 0.002,–,–,inactive: -0.222,inactive: 0.438,inactive: -0.052
ARRB1 isoform 2 (UniProt P49407),inactive: 0.087,–,inactive: 0,inactive: 0.022,inactive: 0.074,–,inactive: 0.09,inactive: 0.033,inactive: 0.03,inactive: -0.112
ATP1B2 (UniProt P14415),inactive: -0.014,inactive: -0.127,inactive: -0.153,inactive: -0.049,inactive: -0.022,–,inactive: 0.013,inactive: -0.104,inactive: 0.095,inactive: 0.15
ATP6V0C (UniProt P27449),–,inactive: -0.235,inactive: 0.057,inactive: 0.167,inactive: -0.472,inactive: 0.039,inactive: -0.052,inactive: 0.123,inactive: -0.491,inactive: 0.101
ATF3 (UniProt P18847),–,inactive: 0.531,inactive: -0.22,–,inactive: -0.035,inactive: -0.025,–,inactive: 0.099,–,inactive: 0.115
ASS1 (UniProt P00966),–,inactive: -0.101,inactive: 0.012,inactive: 0.254,inactive: 0.047,inactive: -0.005,inactive: 0.056,inactive: -0.012,inactive: 0.018,inactive: -0.085
ATP1B3 (UniProt P54709),inactive: 0.082,inactive: 0.073,inactive: -0.034,inactive: -0.032,inactive: 0.034,inactive: 0.025,inactive: 0.092,inactive: -0.051,inactive: -0.012,inactive: 0.014
ATP5F1B (UniProt F8W0P7),inactive: 0.138,inactive: 0.082,–,inactive: -0.063,inactive: 0.011,inactive: 0.044,inactive: 0.179,inactive: -0.054,–,inactive: 0.044
